Results are given in words; binding and its absence hold for the method and conditions named. For some assays here: In cells and extracts the contact can be indirect. Some binding calls cover weakened binding; strength is not graded here. For some assays here: Where a sequence is shown, tags or fusion partners need not be part of it.
What was measured:
Flag-c-Myc = Flag-c-Myc (UniProt P01106); assay: co-IP; tagged proteins coexpressed in 293T cells; lysates immunoprecipitated with anti-Flag M2 beads; western blot for the tags
[1] = biological target: c-Myc (endogenous, Rv1 cells) (human (endogenous in Rv1)) (UniProt P01106); assay: co-IP; endogenous proteins immunoprecipitated from Rv1 cells with JMJD1A or c-Myc antibodies, western blot for the other
GST-c-Myc = GST-c-Myc (UniProt P01106); assay: pull-down; GST or GST-c-Myc bound on glutathione agarose incubated with recombinant Flag-JMJD1A; western blot with GST or Flag antibodies; both purified

The chains behind the UniProt entries cited, without tags or fusion partners. Residues count along the entry.
UniProt P01106, residues 16-454: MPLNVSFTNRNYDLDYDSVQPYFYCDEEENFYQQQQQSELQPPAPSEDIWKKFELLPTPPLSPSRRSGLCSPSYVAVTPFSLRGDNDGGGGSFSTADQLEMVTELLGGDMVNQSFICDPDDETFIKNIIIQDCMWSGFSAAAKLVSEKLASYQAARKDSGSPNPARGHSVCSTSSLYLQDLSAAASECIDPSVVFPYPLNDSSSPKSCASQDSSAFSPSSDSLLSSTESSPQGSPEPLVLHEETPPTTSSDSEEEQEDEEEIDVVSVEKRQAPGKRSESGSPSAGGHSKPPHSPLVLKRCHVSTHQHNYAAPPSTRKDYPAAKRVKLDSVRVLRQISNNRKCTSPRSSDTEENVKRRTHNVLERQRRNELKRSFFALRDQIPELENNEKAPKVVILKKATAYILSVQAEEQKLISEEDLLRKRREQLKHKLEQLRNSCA
UniProt Q09472: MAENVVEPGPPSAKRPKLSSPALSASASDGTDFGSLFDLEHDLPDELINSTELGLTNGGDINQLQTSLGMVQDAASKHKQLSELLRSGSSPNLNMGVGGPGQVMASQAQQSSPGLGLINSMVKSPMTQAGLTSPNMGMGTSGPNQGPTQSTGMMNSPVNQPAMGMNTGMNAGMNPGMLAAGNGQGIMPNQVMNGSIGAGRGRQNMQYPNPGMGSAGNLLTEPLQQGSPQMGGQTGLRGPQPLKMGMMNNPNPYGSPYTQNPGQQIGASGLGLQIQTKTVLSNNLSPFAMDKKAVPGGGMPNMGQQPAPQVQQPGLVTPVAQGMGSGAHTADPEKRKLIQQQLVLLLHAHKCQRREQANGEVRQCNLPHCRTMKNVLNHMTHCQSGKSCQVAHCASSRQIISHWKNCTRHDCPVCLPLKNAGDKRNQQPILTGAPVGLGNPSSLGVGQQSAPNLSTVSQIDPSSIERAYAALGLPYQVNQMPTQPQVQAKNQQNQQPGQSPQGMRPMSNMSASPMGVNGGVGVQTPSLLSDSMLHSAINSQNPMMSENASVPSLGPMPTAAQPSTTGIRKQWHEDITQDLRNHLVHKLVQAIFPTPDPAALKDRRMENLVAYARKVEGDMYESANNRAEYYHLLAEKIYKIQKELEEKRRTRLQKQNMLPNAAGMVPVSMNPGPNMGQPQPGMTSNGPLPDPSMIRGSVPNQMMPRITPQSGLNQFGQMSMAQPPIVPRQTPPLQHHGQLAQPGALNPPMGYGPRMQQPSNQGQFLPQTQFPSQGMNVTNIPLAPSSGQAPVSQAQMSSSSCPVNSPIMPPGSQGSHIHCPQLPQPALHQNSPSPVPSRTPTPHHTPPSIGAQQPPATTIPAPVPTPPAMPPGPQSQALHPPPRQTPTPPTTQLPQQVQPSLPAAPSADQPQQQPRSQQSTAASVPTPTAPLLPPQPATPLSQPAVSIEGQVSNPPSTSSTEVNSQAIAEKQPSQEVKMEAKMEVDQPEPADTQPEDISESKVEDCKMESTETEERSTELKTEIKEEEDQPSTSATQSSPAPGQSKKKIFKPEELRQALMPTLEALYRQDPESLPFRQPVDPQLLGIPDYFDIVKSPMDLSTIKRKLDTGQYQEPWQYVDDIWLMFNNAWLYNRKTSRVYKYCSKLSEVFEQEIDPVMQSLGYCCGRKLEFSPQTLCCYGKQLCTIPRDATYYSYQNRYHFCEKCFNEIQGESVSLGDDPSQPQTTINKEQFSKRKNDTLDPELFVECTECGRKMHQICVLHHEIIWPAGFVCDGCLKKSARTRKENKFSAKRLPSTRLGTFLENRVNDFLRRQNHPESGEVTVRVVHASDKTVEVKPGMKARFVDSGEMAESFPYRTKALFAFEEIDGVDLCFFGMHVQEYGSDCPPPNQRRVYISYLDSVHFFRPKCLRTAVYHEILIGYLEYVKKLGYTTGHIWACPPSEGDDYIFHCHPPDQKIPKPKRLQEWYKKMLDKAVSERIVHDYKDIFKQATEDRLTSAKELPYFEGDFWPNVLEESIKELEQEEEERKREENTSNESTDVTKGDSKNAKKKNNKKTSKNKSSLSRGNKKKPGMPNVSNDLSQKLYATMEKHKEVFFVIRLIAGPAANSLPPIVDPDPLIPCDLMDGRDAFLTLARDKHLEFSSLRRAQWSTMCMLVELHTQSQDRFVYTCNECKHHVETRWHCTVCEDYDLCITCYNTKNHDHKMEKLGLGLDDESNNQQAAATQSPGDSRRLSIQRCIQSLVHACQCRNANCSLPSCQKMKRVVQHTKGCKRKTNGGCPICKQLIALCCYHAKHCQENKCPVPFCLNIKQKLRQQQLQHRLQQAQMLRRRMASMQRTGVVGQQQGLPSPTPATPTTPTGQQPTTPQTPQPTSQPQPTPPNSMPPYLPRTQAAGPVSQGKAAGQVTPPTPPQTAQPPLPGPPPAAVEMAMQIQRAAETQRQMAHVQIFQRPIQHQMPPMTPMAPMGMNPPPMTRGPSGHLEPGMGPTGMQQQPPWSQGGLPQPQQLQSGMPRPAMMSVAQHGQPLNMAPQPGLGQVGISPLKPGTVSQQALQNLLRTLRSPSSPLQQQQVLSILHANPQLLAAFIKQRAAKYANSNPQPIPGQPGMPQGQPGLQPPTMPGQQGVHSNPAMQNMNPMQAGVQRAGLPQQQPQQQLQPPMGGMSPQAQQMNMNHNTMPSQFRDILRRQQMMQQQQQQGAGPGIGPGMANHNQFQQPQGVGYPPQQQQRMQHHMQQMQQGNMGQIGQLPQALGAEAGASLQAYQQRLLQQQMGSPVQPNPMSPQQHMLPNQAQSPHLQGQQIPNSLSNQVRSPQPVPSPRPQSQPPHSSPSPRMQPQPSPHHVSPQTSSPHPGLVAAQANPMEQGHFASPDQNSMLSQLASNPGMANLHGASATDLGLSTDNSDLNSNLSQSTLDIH

| Molecule | binding (Flag-c-Myc) | also measured |
| --- | --- | --- |
| myc-p300 (from UniProt Q09472 1-2414) (enzyme) | binds |  |
| JMJD1A (endogenous, Rv1 cells) (protein, UniProt Q9Y4C1 1-1321) MVLTLGESWPVLVGRRFLSLSAADGSDGSHDSWDVERVAEWPWLSGTIRAVSHTDVTKKDLKVCVEFDGESWRKRRWIEVYSLLRRAFLVEHNLVLAERKSPEISERIVQWPAITYKPLLDKAGLGSITSVRFLGDQQRVFLSKDLLKPIQDVNSLRLSLTDNQIVSKEFQALIVKHLDESHLLKGDKNLVGSEVKIYSLDPSTQWFSATVINGNPASKTLQVNCEEIPALKIVDPSLIHVEVVHDNLVTCGNSARIGAVKRKSSENNGTLVSKQAKSCSEASPSMCPVQSVPTTVFKEILLGCTAATPPSKDPRQQSTPQAANSPPNLGAKIPQGCHKQSLPEEISSCLNTKSEALRTKPDVCKAGLLSKSSQIGTGDLKILTEPKGSCTQPKTNTDQENRLESVPQALTGLPKECLPTKASSKAELEIANPPELQKHLEHAPSPSDVSNAPEVKAGVNSDSPNNCSGKKVEPSALACRSQNLKESSVKVDNESCCSRSNNKIQNAPSRKSVLTDPAKLKKLQQSGEAFVQDDSCVNIVAQLPKCRECRLDSLRKDKEQQKDSPVFCRFFHFRRLQFNKHGVLRVEGFLTPNKYDNEAIGLWLPLTKNVVGIDLDTAKYILANIGDHFCQMVISEKEAMSTIEPHRQVAWKRAVKGVREMCDVCDTTIFNLHWVCPRCGFGVCVDCYRMKRKNCQQGAAYKTFSWLKCVKSQIHEPENLMPTQIIPGKALYDVGDIVHSVRAKWGIKANCPCSNRQFKLFSKPASKEDLKQTSLAGEKPTLGAVLQQNPSVLEPAAVGGEAASKPAGSMKPACPASTSPLNWLADLTSGNVNKENKEKQPTMPILKNEIKCLPPLPPLSKSSTVLHTFNSTILTPVSNNNSGFLRNLLNSSTGKTENGLKNTPKILDDIFASLVQNKTTSDLSKRPQGLTIKPSILGFDTPHYWLCDNRLLCLQDPNNKSNWNVFRECWKQGQPVMVSGVHHKLNSELWKPESFRKEFGEQEVDLVNCRTNEIITGATVGDFWDGFEDVPNRLKNEKEPMVLKLKDWPPGEDFRDMMPSRFDDLMANIPLPEYTRRDGKLNLASRLPNYFVRPDLGPKMYNAYGLITPEDRKYGTTNLHLDVSDAANVMVYVGIPKGQCEQEEEVLKTIQDGDSDELTIKRFIEGKEKPGALWHIYAAKDTEKIREFLKKVSEEQGQENPADHDPIHDQSWYLDRSLRKRLHQEYGVQGWAIVQFLGDVVFIPAGAPHQVHNLYSCIKVAEDFVSPEHVKHCFWLTQEFRYLSQTHTNHEDKLQVKNVIYHAVKDAVAMLKASESSFGKP |  | binding [1]: binds |
| HA-JMJD1A K918R (protein, UniProt Q9Y4C1 1-1321) MVLTLGESWPVLVGRRFLSLSAADGSDGSHDSWDVERVAEWPWLSGTIRAVSHTDVTKKDLKVCVEFDGESWRKRRWIEVYSLLRRAFLVEHNLVLAERKSPEISERIVQWPAITYKPLLDKAGLGSITSVRFLGDQQRVFLSKDLLKPIQDVNSLRLSLTDNQIVSKEFQALIVKHLDESHLLKGDKNLVGSEVKIYSLDPSTQWFSATVINGNPASKTLQVNCEEIPALKIVDPSLIHVEVVHDNLVTCGNSARIGAVKRKSSENNGTLVSKQAKSCSEASPSMCPVQSVPTTVFKEILLGCTAATPPSKDPRQQSTPQAANSPPNLGAKIPQGCHKQSLPEEISSCLNTKSEALRTKPDVCKAGLLSKSSQIGTGDLKILTEPKGSCTQPKTNTDQENRLESVPQALTGLPKECLPTKASSKAELEIANPPELQKHLEHAPSPSDVSNAPEVKAGVNSDSPNNCSGKKVEPSALACRSQNLKESSVKVDNESCCSRSNNKIQNAPSRKSVLTDPAKLKKLQQSGEAFVQDDSCVNIVAQLPKCRECRLDSLRKDKEQQKDSPVFCRFFHFRRLQFNKHGVLRVEGFLTPNKYDNEAIGLWLPLTKNVVGIDLDTAKYILANIGDHFCQMVISEKEAMSTIEPHRQVAWKRAVKGVREMCDVCDTTIFNLHWVCPRCGFGVCVDCYRMKRKNCQQGAAYKTFSWLKCVKSQIHEPENLMPTQIIPGKALYDVGDIVHSVRAKWGIKANCPCSNRQFKLFSKPASKEDLKQTSLAGEKPTLGAVLQQNPSVLEPAAVGGEAASKPAGSMKPACPASTSPLNWLADLTSGNVNKENKEKQPTMPILKNEIKCLPPLPPLSKSSTVLHTFNSTILTPVSNNNSGFLRNLLNSSTGKTENGLKNTPKILDDIFASLVQNRTTSDLSKRPQGLTIKPSILGFDTPHYWLCDNRLLCLQDPNNKSNWNVFRECWKQGQPVMVSGVHHKLNSELWKPESFRKEFGEQEVDLVNCRTNEIITGATVGDFWDGFEDVPNRLKNEKEPMVLKLKDWPPGEDFRDMMPSRFDDLMANIPLPEYTRRDGKLNLASRLPNYFVRPDLGPKMYNAYGLITPEDRKYGTTNLHLDVSDAANVMVYVGIPKGQCEQEEEVLKTIQDGDSDELTIKRFIEGKEKPGALWHIYAAKDTEKIREFLKKVSEEQGQENPADHDPIHDQSWYLDRSLRKRLHQEYGVQGWAIVQFLGDVVFIPAGAPHQVHNLYSCIKVAEDFVSPEHVKHCFWLTQEFRYLSQTHTNHEDKLQVKNVIYHAVKDAVAMLKASESSFGKP | binds |  |
| recombinant Flag-JMJD1A (protein, UniProt Q9Y4C1 1-1321) MVLTLGESWPVLVGRRFLSLSAADGSDGSHDSWDVERVAEWPWLSGTIRAVSHTDVTKKDLKVCVEFDGESWRKRRWIEVYSLLRRAFLVEHNLVLAERKSPEISERIVQWPAITYKPLLDKAGLGSITSVRFLGDQQRVFLSKDLLKPIQDVNSLRLSLTDNQIVSKEFQALIVKHLDESHLLKGDKNLVGSEVKIYSLDPSTQWFSATVINGNPASKTLQVNCEEIPALKIVDPSLIHVEVVHDNLVTCGNSARIGAVKRKSSENNGTLVSKQAKSCSEASPSMCPVQSVPTTVFKEILLGCTAATPPSKDPRQQSTPQAANSPPNLGAKIPQGCHKQSLPEEISSCLNTKSEALRTKPDVCKAGLLSKSSQIGTGDLKILTEPKGSCTQPKTNTDQENRLESVPQALTGLPKECLPTKASSKAELEIANPPELQKHLEHAPSPSDVSNAPEVKAGVNSDSPNNCSGKKVEPSALACRSQNLKESSVKVDNESCCSRSNNKIQNAPSRKSVLTDPAKLKKLQQSGEAFVQDDSCVNIVAQLPKCRECRLDSLRKDKEQQKDSPVFCRFFHFRRLQFNKHGVLRVEGFLTPNKYDNEAIGLWLPLTKNVVGIDLDTAKYILANIGDHFCQMVISEKEAMSTIEPHRQVAWKRAVKGVREMCDVCDTTIFNLHWVCPRCGFGVCVDCYRMKRKNCQQGAAYKTFSWLKCVKSQIHEPENLMPTQIIPGKALYDVGDIVHSVRAKWGIKANCPCSNRQFKLFSKPASKEDLKQTSLAGEKPTLGAVLQQNPSVLEPAAVGGEAASKPAGSMKPACPASTSPLNWLADLTSGNVNKENKEKQPTMPILKNEIKCLPPLPPLSKSSTVLHTFNSTILTPVSNNNSGFLRNLLNSSTGKTENGLKNTPKILDDIFASLVQNKTTSDLSKRPQGLTIKPSILGFDTPHYWLCDNRLLCLQDPNNKSNWNVFRECWKQGQPVMVSGVHHKLNSELWKPESFRKEFGEQEVDLVNCRTNEIITGATVGDFWDGFEDVPNRLKNEKEPMVLKLKDWPPGEDFRDMMPSRFDDLMANIPLPEYTRRDGKLNLASRLPNYFVRPDLGPKMYNAYGLITPEDRKYGTTNLHLDVSDAANVMVYVGIPKGQCEQEEEVLKTIQDGDSDELTIKRFIEGKEKPGALWHIYAAKDTEKIREFLKKVSEEQGQENPADHDPIHDQSWYLDRSLRKRLHQEYGVQGWAIVQFLGDVVFIPAGAPHQVHNLYSCIKVAEDFVSPEHVKHCFWLTQEFRYLSQTHTNHEDKLQVKNVIYHAVKDAVAMLKASESSFGKP |  | binding (GST-c-Myc): binds |
| HA-JMJD1A (WT) (protein, UniProt Q9Y4C1 1-1321) MVLTLGESWPVLVGRRFLSLSAADGSDGSHDSWDVERVAEWPWLSGTIRAVSHTDVTKKDLKVCVEFDGESWRKRRWIEVYSLLRRAFLVEHNLVLAERKSPEISERIVQWPAITYKPLLDKAGLGSITSVRFLGDQQRVFLSKDLLKPIQDVNSLRLSLTDNQIVSKEFQALIVKHLDESHLLKGDKNLVGSEVKIYSLDPSTQWFSATVINGNPASKTLQVNCEEIPALKIVDPSLIHVEVVHDNLVTCGNSARIGAVKRKSSENNGTLVSKQAKSCSEASPSMCPVQSVPTTVFKEILLGCTAATPPSKDPRQQSTPQAANSPPNLGAKIPQGCHKQSLPEEISSCLNTKSEALRTKPDVCKAGLLSKSSQIGTGDLKILTEPKGSCTQPKTNTDQENRLESVPQALTGLPKECLPTKASSKAELEIANPPELQKHLEHAPSPSDVSNAPEVKAGVNSDSPNNCSGKKVEPSALACRSQNLKESSVKVDNESCCSRSNNKIQNAPSRKSVLTDPAKLKKLQQSGEAFVQDDSCVNIVAQLPKCRECRLDSLRKDKEQQKDSPVFCRFFHFRRLQFNKHGVLRVEGFLTPNKYDNEAIGLWLPLTKNVVGIDLDTAKYILANIGDHFCQMVISEKEAMSTIEPHRQVAWKRAVKGVREMCDVCDTTIFNLHWVCPRCGFGVCVDCYRMKRKNCQQGAAYKTFSWLKCVKSQIHEPENLMPTQIIPGKALYDVGDIVHSVRAKWGIKANCPCSNRQFKLFSKPASKEDLKQTSLAGEKPTLGAVLQQNPSVLEPAAVGGEAASKPAGSMKPACPASTSPLNWLADLTSGNVNKENKEKQPTMPILKNEIKCLPPLPPLSKSSTVLHTFNSTILTPVSNNNSGFLRNLLNSSTGKTENGLKNTPKILDDIFASLVQNKTTSDLSKRPQGLTIKPSILGFDTPHYWLCDNRLLCLQDPNNKSNWNVFRECWKQGQPVMVSGVHHKLNSELWKPESFRKEFGEQEVDLVNCRTNEIITGATVGDFWDGFEDVPNRLKNEKEPMVLKLKDWPPGEDFRDMMPSRFDDLMANIPLPEYTRRDGKLNLASRLPNYFVRPDLGPKMYNAYGLITPEDRKYGTTNLHLDVSDAANVMVYVGIPKGQCEQEEEVLKTIQDGDSDELTIKRFIEGKEKPGALWHIYAAKDTEKIREFLKKVSEEQGQENPADHDPIHDQSWYLDRSLRKRLHQEYGVQGWAIVQFLGDVVFIPAGAPHQVHNLYSCIKVAEDFVSPEHVKHCFWLTQEFRYLSQTHTNHEDKLQVKNVIYHAVKDAVAMLKASESSFGKP | binds |  |

From publication PMC7113292
